Data source: PubChem BioAssay AID720710 (VTT Finland, 2013)
In all, the deposit lists about 1,380 reagents; this is a random part of them. 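One array per condition without replicates; hydroxyurea arrays received 2 mM for 16 h plus 3 h recovery.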 Further read-outs or replicates are left out here.

Assay: 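Knock-downs that leave cyclin E-high cells sensitive to replication stress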 (primary screen)
Cells: human U-2 OS bone cancer cells, parental and a cyclin E (CCNE1) overexpressing line
Reagent: single siRNA against human genes, 1 µM siRNA in the printed spot mix
Timing: 67 h
Challenge: half the arrays: hydroxyurea 2 mM for 16 h, then 3 h recovery; other arrays untreated
Detection: 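DNA synthesis measured as imaged EdU uptake per nucleus (DAPI) at 67 h, normalised to subgrid median and given as z-score versus non-targeting controls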
Reading the numbers: EdU z-score, cyclin E line, hydroxyurea: higher = more DNA synthesis than non-targeting controls

EdU z-score, cyclin E line, hydroxyurea, by gene and reagent
ZC2HC1A: SID164221962 0.975; SID164221963 1.43
H4C2: SID164222120 0.027; SID164222121 1.26
FBH1: SID164221982 -0.932; SID164221983 0.567
SPDYA: SID164222826 -2.06; SID164222827 2.68
UBE2B: SID164222950 -0.216; SID164222951 0.28
SOD2: SID164222810 0.391; SID164222811 1.22
CHD5: SID164221830 -0.621; SID164221831 2.59
PDS5B: SID164222476 -0.619; SID164222477 2.79
SLK: SID164222768 -2.68; SID164222769 1.24
CDC7: SID164221798 -2.13; SID164221799 -1.71
CIB1: SID164221844 0.104; SID164221845 0.302

Reformatted: entries from further up.
PDS5B [SID164222476] | EdU z-score, cyclin E line, hydroxyurea: -0.619
PDS5B [SID164222477] | EdU z-score, cyclin E line, hydroxyurea: 2.79
